Results on four substances are retold here after patent US20050003371A1, “Modified nucleotides and methods of labeling nucleic acids” (Stratagene, priority 2002, published 2005).

The subject of data set [1] is human alpha 1-antitrypsin transcripts. Description: Northern blot, chemiluminescent detection with fluorescein-labeled riboprobes (Procedure 9). Also on record: species or system mouse.
Data set [2] can be described thus: Characterization of functionalized nucleotides: DNA probe made therewith (Appendix 1).

Consider fluorescein-12-UTP, for which the “amount of transgenic mouse messenger RNA in which transcripts were detected” value in data set [1] (messenger RNA) came out at 2 µg. In addition, in data set [1] (total mouse RNA), the “amount of total mouse RNA in which transcripts were detected” value was determined as 10 µg. In the case of “pyridine dithiopropanoate-dUTP [PDP-dUTP]”, the “DNA probe made therewith?” value in data set [2] was “Yes”. Take “maleimido-methylcyclohexane-dUTP [MCC-dUTP]”: the “DNA probe made therewith?” value in data set [2] is “Yes”. With “Fluorescein-12-dUTP [reference compound]”, in data set [2], the “DNA probe made therewith?” value was “Yes”.
